According to paper PMC12678531, “Cytosolic TOP3α facilitates mitochondrial DNA sensing by cGAS”:
No constants are given. Whether binding was seen depends on the method and setting. In cells and extracts the contact can be indirect. Where a sequence is shown, tags or fusion partners need not be part of it.

Chains of the proteins cited; added tags and fusions are not shown.
UniProt Q8N884: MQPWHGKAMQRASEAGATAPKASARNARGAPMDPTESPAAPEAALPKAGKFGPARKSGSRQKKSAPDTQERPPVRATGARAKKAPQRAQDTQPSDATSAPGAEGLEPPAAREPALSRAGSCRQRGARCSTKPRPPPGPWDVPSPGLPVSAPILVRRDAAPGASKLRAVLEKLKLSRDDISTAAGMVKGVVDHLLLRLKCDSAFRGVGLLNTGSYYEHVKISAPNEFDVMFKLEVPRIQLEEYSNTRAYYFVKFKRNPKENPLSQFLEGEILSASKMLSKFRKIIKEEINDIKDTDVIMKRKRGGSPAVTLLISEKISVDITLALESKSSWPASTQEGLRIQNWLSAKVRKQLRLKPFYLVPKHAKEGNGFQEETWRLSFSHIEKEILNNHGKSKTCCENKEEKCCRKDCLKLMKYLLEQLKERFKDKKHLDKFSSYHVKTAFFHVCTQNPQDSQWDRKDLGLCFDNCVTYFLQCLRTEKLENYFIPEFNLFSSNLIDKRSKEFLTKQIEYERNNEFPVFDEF

Target: cGAS (human (endogenous in HMC3)) (UniProt Q8N884)
Test: co-IP; cytosolic components of HMC3 cells (0.025% digitonin, 50 mM Tris-HCl pH 7.5, 150 mM NaCl) expressing EGFP or EGFP tagged TOP3α for 1 day; endogenous cGAS precipitated with anti-cGAS beads; SDS-PAGE and immunoblotting

binding: no binding
B1: EGFP tagged TOP3α (Topoisomerase 3α) (protein, UniProt Q13472 1-1001)
chain: MIFPVARYALRWLRRPEDRAFSRAAMEMALRGVRKVLCVAEKNDAAKGIADLLSNGRMRRREGLSKFNKIYEFDYHLYGQNVTMVMTSVSGHLLAHDFQMQFRKWQSCNPLVLFEAEIEKYCPENFVDIKKTLERETRQCQALVIWTDCDREGENIGFEIIHVCKAVKPNLQVLRARFSEITPHAVRTACENLTEPDQRVSDAVDVRQELDLRIGAAFTRFQTLRLQRIFPEVLAEQLISYGSCQFPTLGFVVERFKAIQAFVPEIFHRIKVTHDHKDGIVEFNWKRHRLFNHTACLVLYQLCVEDPMATVVEVRSKPKSKWRPQALDTVELEKLASRKLRINAKETMRIAEKLYTQGYISYPRTETNIFPRDLNLTVLVEQQTPDPRWGAFAQSILERGGPTPRNGNKSDQAHPPIHPTKYTNNLQGDEQRLYEFIVRHFLACCSQDAQGQETTVEIDIAQERFVAHGLMILARNYLDVYPYDHWSDKILPVYEQGSHFQPSTVEMVDGETSPPKLLTEADLIALMEKHGIGTDATHAEHIETIKARMYVGLTPDKRFLPGHLGMGLVEGYDSMGYEMSKPDLRAELEADLKLICDGKKDKFVVLRQQVQKYKQVFIEAVAKAKKLDEALAQYFGNGTELAQQEDIYPAMPEPIRKCPQCNKDMVLKTKKNGGFYLSCMGFPECRSAVWLPDSVLEASRDSSVCPVCQPHPVYRLKLKFKRGSLPPTMPLEFVCCIGGCDDTLREILDLRFSGGPPRASQPSGRLQANQSLNRMDNSQHPQPADSRQTGSSKALAQTLPPPTAAGESNSVTCNCGQEAVLLTVRKEGPNRGRQFFKCNGGSCNFFLWADSPNPGAGGPPALAYRPLGASLGCPPGPGIHLGGFGNPGDGSGSGTSCLCSQPSVTRTVQKDGPNKGRQFHTCAKPREQQCGFFQWVDENTAPGTSGAPSWTGDRGRTLESEARSKRPRASSSDMGSTAKKPRKCSLCHQPGHTRPFCPQNR
